Laboratory results: PubChem BioAssay AID1671195 (Yale University, 2021)
In all, the deposit lists about 22,000 reagents; below is an unselected part. In the full data, about 1,510 (6.9%) got an active call. 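Active includes knockdowns raising or lowering LDL uptake; positive z-scores mean more uptake, negative mean less.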 No sequences are given here.

Screen: 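Regulators of LDL receptor activity judged by labelled LDL uptake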 (primary screen)
System: human Huh7 hepatoma cells
Knock-down reagent: siRNA pool against human genes, 18 nM
Duration: about 2 to 2.5 days of knockdown, then 8 h LDL uptake
Conditions: DiI-labelled LDL at 30 µg/ml for 8 h, in lipoprotein-deficient serum medium
Read-out: 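Fluorescent LDL signal imaged in cells, scaled to the plate median, robust z-score for each replicate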
Scale: robust z-score: higher = more LDL uptake after knockdown
Hit rule: 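Active when two or more replicates show a robust z-score above 2 or below -2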

Target gene | PubChem SID | robust z-score, replicate 1 | robust z-score, replicate 2 | robust z-score, replicate 3 | Outcome
LOC442124 (retired record) | SID442904399 | -2.09 | -1.66 | -1.11 | inactive
AP5B1 | SID442900386 | -0.784 | -0.83 | -0.646 | inactive
NELL2 | SID442887514 | 1.07 | 1.96 | -0.329 | inactive
LOC440964 (retired record) | SID442904163 | -1.7 | -1.62 | -1.22 | inactive
AHSG | SID442889637 | 1.38 | -0.0932 | 0.305 | inactive
CD226 | SID442899774 | -0.681 | -1.15 | -0.169 | inactive
PTCH2 | SID442894430 | -0.0438 | -0.573 | 0.428 | inactive
KLHL9 | SID442902579 | -0.353 | -1.34 | -1.63 | inactive
KIF13B | SID442883275 | 3.68 | 3.64 | 3.15 | active
LIMA1 | SID442890130 | 0.0447 | 1.52 | -0.185 | inactive
SYDE2 | SID442895210 | -0.116 | -0.00855 | -0.313 | inactive
SFPQ | SID442903817 | -1.52 | -1.61 | -1.07 | inactive
GGT7 | SID442884608 | 1.68 | 3.43 | 1.91 | inactive
CIAO3 | SID442898875 | -0.334 | -1.05 | -0.261 | inactive
TNFAIP1 | SID442900176 | -0.409 | -1.06 | -0.704 | inactive
CEP63 | SID442887029 | 1.24 | 0.867 | 0.898 | inactive
LOC442495 (retired record) | SID442890278 | 0.503 | 0.523 | 0.293 | inactive
ITGA4 | SID442894606 | 0.374 | -0.803 | 0.185 | inactive
PLXND1 | SID442890917 | -0.0861 | 0.524 | 0.626 | inactive
AKT2 | SID442899222 | -0.406 | -0.584 | -0.788 | inactive
LOC387649 (retired record) | SID442897297 | -0.407 | -0.604 | -0.0991 | inactive
UNG | SID442893316 | 0.0919 | 0.144 | -0.0449 | inactive
IL17RA | SID442888092 | 0.349 | 1.19 | 0.818 | inactive
EEIG1 | SID442898910 | -1.92 | 0.112 | 0.145 | inactive
METTL5 | SID442892961 | 0.325 | 0.22 | -0.234 | inactive
LOC441817 (retired record) | SID442904416 | -1.61 | -1.88 | -1.4 | inactive
BCLAF1 | SID442887957 | 0.569 | 0.353 | 1.51 | inactive
TRIM29 | SID442904324 | -1.4 | -2.21 | -1.15 | inactive

A few values from the entries so far:
Entry for PTCH2 [SID442894430] in “Outcome”: inactive
NELL2 [SID442887514], robust z-score, replicate 2: 1.96
For “robust z-score, replicate 1”, AP5B1 [SID442900386] is entered as -0.784
Value for EEIG1 [SID442898910] in “robust z-score, replicate 1”: -1.92
